{"source": "patent US20040138237A1", "about": "“Novel injectable depot formulations” (Pfizer Inc, priority 2002, published 2004)", "assay": "Solubilization of ziprasidone mesylate in concentrated aqueous SBECD solution (concentration, HPLC potency)", "assay_type": "physicochemical", "conditions": "with 59% SBECD", "protocol": "This particular example employs a high concentration of SBECD to form an aqueous solution of ziprasidone at about 80 mgA/ml with about 56% SBECD. To facilitate drug dissolution, a pre-weighed amount of SBECD (gram weight SBECD equivalent to ml of depot formulation being prepared) was dissolved in water by heating in a water bath at 50° C. Ziprasidone mesylate was added in about 50 mg increments while heat was supplied to maintain the system at 50-60° C. A total of 572.99 mg Ziprasidone mesylate was added to 3 ml of 100% SBECD solution resulting in formation of 140 mgA/ml (191 mg/ml) clear viscous solution. The above solution was cooled to room temperature, and the solution remained clear for 2 weeks. Due to volume expansion, the final concentration of ziprasidone was about 80 mgA/ml with 56% cyclodextrin.\nThe stock solution was prepared using the same method as described above, however due to the higher solution volume (20 ml), the dissolution time was much longer (over 4 hours) even though micronized ziprasidone mesylate was used. During compounding, significant volume expansion was noted. To correct for the volume expansion, the specific gravity of the solution was determined to be 1.188 gm/ml. The volume of water used to prepare this solution was 20 ml, however, the final volume of the solution was 36.6 ml, and the weight of the solution was 43.5 gm. […]", "note": "At least one read-out could not be matched to a standard name with certainty.", "data": [{"compound": "O=C1Cc2cc(CCN3CCN(c4nsc5ccccc45)CC3)c(Cl)cc2N1", "note": "[ziprasidone]", "values": [{"measurement": "ziprasidone solution concentration (extent of solubilization)", "value": 82, "unit": "mgA/ml"}]}]}
